Laboratory results: PubChem BioAssay AID1259254 (NCATS, 2017)
The whole screen tested about 59,000 reagents; this is an unselected part. About 1,550 of all reagents (2.6%) count as active. 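G2 share is only a proxy for re-replication; each gene was hit by three separate siRNAs, and active genes were retested.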 A number with no mark means an inactive call. Reagents against one gene are numbered here. Further read-outs or replicates are left out here. The record does not give: the amount of reagent.

Assay: 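Genome-wide screen for genes that prevent DNA re-replication in cancer cells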 (primary screen)
Cell system: human HCT116 colorectal cancer cells
Reagents: single siRNA against human genes
Time to read-out: 3 days
Read-out: 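Nuclei stained with Hoechst and imaged; cell-cycle phase assigned by DNA content; G2 share scaled per plate, non-targeting siRNA 0%, GMNN siRNA 100%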
Reading the numbers: G2 robust z-score: higher = more G2 cells, more excess DNA replication
Active means: 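An siRNA counts as active if its G2 robust z-score lies at least 5 MADs above the screen median; here such calls match roughly 38% of GMNN control or more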

With GUSBP14 (GUSB pseudogene 14) #1, how do the results read?
G2 robust z-score: -0.0998

With GUSBP14 (GUSB pseudogene 14) #2, how do the results read?
G2 robust z-score: -0.868

What did the screen give for GUSBP14 (GUSB pseudogene 14) #3?
G2 robust z-score: -0.818

What is on record for PBK (PDZ binding kinase) #1?
G2 robust z-score: 3.07

What is on record for PBK (PDZ binding kinase) #2?
G2 robust z-score: -0.659

With PBK (PDZ binding kinase) #3, how do the results read?
G2 robust z-score: 3.31

With GLYATL3 (glycine-N-acyltransferase like 3) #1, how do the results read?
G2 robust z-score: 0.703

Which result is listed for GLYATL3 (glycine-N-acyltransferase like 3) #2?
G2 robust z-score: 1.02

Which result is listed for GLYATL3 (glycine-N-acyltransferase like 3) #3?
G2 robust z-score: -0.297

2 entries from above in another layout.
{"gene symbol":"GUSBP14 (GUSB pseudogene 14)","siRNA no.":1,"G2 robust z-score":-0.0998}
{"gene symbol":"GUSBP14 (GUSB pseudogene 14)","siRNA no.":2,"G2 robust z-score":-0.868}

Next reagents follow:
Which result is listed for AATF (apoptosis antagonizing transcription factor) #1?
G2 robust z-score: 1.13

With AATF (apoptosis antagonizing transcription factor) #2, how do the results read?
G2 robust z-score: 1.75

How did the screen score AATF (apoptosis antagonizing transcription factor) #3?
G2 robust z-score: 0.318

With ACTBL2 (actin beta like 2) #1, what does the deposit list?
G2 robust z-score: 0.894

What did the screen give for ACTBL2 (actin beta like 2) #2?
G2 robust z-score: 4.1

With ACTBL2 (actin beta like 2) #3, what does the deposit list?
G2 robust z-score: -0.521

How did the screen score CTRB2 (chymotrypsinogen B2) #1?
G2 robust z-score: -1.02

For CTRB2 (chymotrypsinogen B2) #2, what does the deposit list?
G2 robust z-score: 1.33

What did the screen give for CTRB2 (chymotrypsinogen B2) #3?
G2 robust z-score: 2.56

For SSX5 (SSX family member 5) #1, what does the deposit list?
G2 robust z-score: -0.297

With SSX5 (SSX family member 5) #2, what does the deposit list?
G2 robust z-score: 0.0357

For SSX5 (SSX family member 5) #3, what does the deposit list?
G2 robust z-score: 0.853

What is on record for TMEM8B (transmembrane protein 8B) #1?
G2 robust z-score: -0.79

What is on record for TMEM8B (transmembrane protein 8B) #2?
G2 robust z-score: 1.48

How did the screen score TMEM8B (transmembrane protein 8B) #3?
G2 robust z-score: -0.00647
